# From PubChem BioAssay AID256 (DTP/NCI, 2004)
# The list shows only some results of the screen, not a fair sample: it is rich in T/C values a quarter to a half above the control, in often repeated tests (any T/C) and in doses without a T/C. Other doses and runs of a compound stand elsewhere. T/C: endpoint of the treated group in % of that of the vehicle group. Some entries give survivors of the animals treated and no T/C: the source files T/C as zero there, which appears to mark a toxic dose or a test without result, not a measured value. Some doses without a T/C left all or most animals alive at the check, yet need not have been tolerated: the source hardly ever lists a survival T/C far under the control, and the zero likely stands for such cases as well. Survivors were counted at the toxicity check, usually on the fifth day, unless a day is given; later deaths do not show. Schedule codes are those of the source, taken here to give the interval after Q, in days (D) or hours (H), and the number of doses after X. Some structures stand for samples that the source files as different forms (salt, stereo form or complex); doses refer to the form tested. Where survival is the endpoint, the PubChem record calls one and a half times the control and up active, and a quarter to a half above the control has no call in these data; cut-offs in other NCI protocols can differ.
# Test system: CD2F1 mice, L1210 leukemia ip, survival T/C
# Assay: NCI In Vivo Anticancer Drug Screen. Data for tumor model L1210 Leukemia (intraperitoneal) in CD2F1 (CDF1) mice
# Conditions: higher T/C = longer survival
# In short: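 Read-out first: treated-group measurement over vehicle-control measurement, expressed as a ratio. Animals bore a transplanted tumor line and were dosed with compound or vehicle.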
# [1] = T/C endpoint: mean survival time, dose: 100.0 mg/kg/injection, schedule: Q01DX009 (ip), vehicle: saline
# [2] = T/C endpoint: mean survival time, dose: 400.0 mg/kg/injection, schedule: Q04DX003 (ip), vehicle: saline with Tween-80
# [3] = T/C endpoint: mean survival time, dose: 200.0 mg/kg/injection, schedule: Q01DX001 (ip), vehicle: saline with Tween-80
# [4] = T/C endpoint: mean survival time, dose: 400.0 mg/kg/injection, schedule: Q01DX001 (ip), vehicle: saline with Tween-80
structure (smiles),measurement,setting,value
O=C(CBr)C(=O)CBr,survivor count,"T/C endpoint: mean survival time, dose: 2.5 mg/kg/injection, schedule: Q04DX003 (ip), vehicle: saline with Tween-80",0 of 6
same,survivor count,"T/C endpoint: mean survival time, dose: 5.0 mg/kg/injection, schedule: Q04DX003 (ip), vehicle: saline with Tween-80",0 of 6
same,survivor count,"T/C endpoint: mean survival time, dose: 10.0 mg/kg/injection, schedule: Q04DX003 (ip), vehicle: saline with Tween-80",0 of 6
CSc1sc2ccccc2[n+]1C,T/C,[1],127 % of control
Clc1cc2n[nH]nc2c(Cl)n1,survivor count,"T/C endpoint: mean survival time, dose: 200.0 mg/kg/injection, schedule: Q01DX009 (ip), vehicle: water",1 of 6
same,survivor count,"T/C endpoint: mean survival time, dose: 400.0 mg/kg/injection, schedule: Q01DX009 (ip), vehicle: water",0 of 6
CCCCOC(=O)c1ccccc1,survivor count,"T/C endpoint: mean survival time, dose: 400.0 mg/kg/injection, schedule: Q01DX009 (ip), vehicle: saline with Tween-80",6 of 6
Cc1ccc(S(=O)(=O)OCC2OC3(COS(=O)(=O)c4ccc(C)cc4)OC(C)(C)OC3C2O)cc1 (configuration not stated),survivor count,[2],5 of 6
CN(C)c1ccc(C(Cc2ccc(Nc3ccccc3)c3ccccc23)=C2C=CC(=[N+](C)C)C=C2)cc1,survivor count,"T/C endpoint: mean survival time, dose: 50.0 mg/kg/injection, schedule: Q01DX001 (ip), vehicle: saline",1 of 3
same,survivor count,"T/C endpoint: mean survival time, dose: 100.0 mg/kg/injection, schedule: Q01DX001 (ip), vehicle: saline with Tween-80",0 of 3
same,survivor count,[3],1 of 3
same,survivor count,[4],0 of 3
CN(C)c1ccc(/C=C/c2cc[n+](C)cc2)cc1,survivor count,"T/C endpoint: mean survival time, dose: 16.0 mg/kg/injection, schedule: Q01DX009 (ip), vehicle: saline",3 of 6
ClC1CN2CCC1CC2 (configuration not stated),survivor count,[1],2 of 6
CN(C)c1ccc(N=O)cc1,survivor count,"T/C endpoint: median survival time, dose: 12.5 mg/kg/injection, schedule: Q04DX002 (ip), vehicle: saline with Tween-80",3 of 3
same,survivor count,"T/C endpoint: median survival time, dose: 25.0 mg/kg/injection, schedule: Q04DX002 (ip), vehicle: saline with Tween-80",2 of 3
same,survivor count,"T/C endpoint: median survival time, dose: 50.0 mg/kg/injection, schedule: Q04DX002 (ip), vehicle: saline with Tween-80",0 of 3
same,survivor count,"T/C endpoint: median survival time, dose: 100.0 mg/kg/injection, schedule: Q04DX002 (ip), vehicle: saline with Tween-80",0 of 3
CCCCN(CCCC)CC(O)c1ccccc1 (configuration not stated),survivor count,"T/C endpoint: mean survival time, dose: 200.0 mg/kg/injection, schedule: Q04DX002 (ip), vehicle: saline with Tween-80",0 of 3
same,survivor count,"T/C endpoint: mean survival time, dose: 400.0 mg/kg/injection, schedule: Q04DX002 (ip), vehicle: saline with Tween-80",0 of 3
CC(=O)[C@]1(O)Cc2c(O)c3c(c(O)c2[C@@H](OC2CC(N)C(O)C(C)O2)C1)C(=O)c1c(O)cccc1C3=O (some centres not stated),T/C,"T/C endpoint: mean survival time, dose: 0.14 mg/kg/injection, schedule: Q01DX009 (ip), vehicle: saline",132 % of control
same,T/C,"T/C endpoint: mean survival time, dose: 0.23 mg/kg/injection, schedule: Q01DX009 (ip), vehicle: saline",129 % of control
same,T/C,"T/C endpoint: mean survival time, dose: 0.39 mg/kg/injection, schedule: Q04DX003 (ip), vehicle: saline",140 % of control
same,T/C,"T/C endpoint: mean survival time, dose: 0.65 mg/kg/injection, schedule: Q04DX003 (ip), vehicle: saline",128 % of control
same,T/C,"T/C endpoint: mean survival time, dose: 1.08 mg/kg/injection, schedule: Q04DX003 (ip), vehicle: saline",139 % of control
COc1cc2c(cc1OC)C13CCN4CC5=CCOC6CC(=O)N2C1C6C5CC43 (configuration not stated) (tested in a mixture with another compound),survivor count,[3],0 of 6
same,survivor count,"T/C endpoint: mean survival time, dose: 200.0 mg/kg/injection, schedule: Q01DX009 (ip), vehicle: saline",0 of 6
same,survivor count,[4],0 of 6
same,survivor count,"T/C endpoint: mean survival time, dose: 400.0 mg/kg/injection, schedule: Q01DX009 (ip), vehicle: saline",0 of 6
Cc1ccnc(N)c1.[Cl-].[Cl-].[Cl-].[Cl-].[Pt+2],survivor count,"T/C endpoint: mean survival time, dose: 100.0 mg/kg/injection, schedule: Q04DX003 (ip), vehicle: saline with Tween-80",0 of 4
same,survivor count,"T/C endpoint: mean survival time, dose: 200.0 mg/kg/injection, schedule: Q04DX003 (ip), vehicle: saline with Tween-80",0 of 4
same,survivor count,[2],0 of 4
